Test results: patent US3937809A, “Addition compound of a nucleotide and an amino acid and the use thereof in protection against actinic radiation” (priority 1974, dated 1976)
At least one structure is not confirmed: it was looked up by name or label, or the drawing left a doubt.

Test: UV absorption in % at 300, 280 and 240 nm (Table 2)
Type: physicochemical
Excerpt: The following Table illustrates the ultraviolet absorption characteristics at wave lengths of 300 nm, 280 nm, and 240 nm for the compounds of the invention, as well as other known compounds which have been used in the past as sun protective agents.

**Q.** For `Nc1ccc(C(=O)O)cc1` [p-Aminobenzoate], which “UV Absorption in %, 240 nm” value (240 nm) is on record?
**A.** 95%

**Q.** What about the “UV Absorption in %, 280 nm” value (280 nm) of the same compound?
**A.** 100%

**Q.** What about the “UV Absorption in %, 300 nm” value (300 nm) of the same compound?
**A.** 94%
